From patent US7741286B2 (ConjuChem Biotechnologies Inc., priority 1999, dated 2010)

Assay: general procedure: Fmoc solid-phase peptide synthesis; Fmoc protected Rink Amide MBHA resin; HBTU in DMF with NMM activation
Conditions: whole synthesis, RP-HPLC mass spectrometry, Hewlett Packard LCMS-1100 with diode array detector and electro-spray ionization, scale 100 μmole

Substance	final LC-MS purity (2TFA)	further results
(MPA)-Arg-Asn-Pro-Asp-Gly-Asp-Val-Gly-Gly-Pro-Trp-Ala-Tyr-Thr-Thr-Asn-Pro-Arg-Lys-Leu-Tyr-Asp-Tyr-NH2.3TFA	–	final LC-MS purity (3TFA): >95%
(MPA)-Arg-Asn-Pro-Asp-Gly-Asp-Val-Gly-Gly-Pro-Trp-NH2.TFA	–	final LC-MS purity (TFA): >95%
(MPA)-Arg-Lys-Leu-Tyr-Asp-Tyr-NH2.2TFA	>95%	–
(MPA)-Pro-Arg-Lys-Leu-Tyr-Asp-NH2.2TFA	>95%	–
(MPA-AEEA)-Arg-Asn-Pro-Asp-Gly-Asp-Val-Gly-Gly-Pro-Trp-NH2.TFA	–	final LC-MS purity (TFA): >95%
(MPA-AEEA)-Arg-Lys-Leu-Tyr-Asp-Tyr-NH2.2TFA	>95%	–
(MPA-AEEA)-Pro-Arg-Lys-Leu-Tyr-Asp-NH2.2TFA	>95%	–

One purity is given for all peptides; the source may state it once.
